Results taken from PubChem BioAssay AID694 (Emory University Molecular Libraries Screening Center, 2007).
“And” between values parts separate entries of the source, which are not always exact repeats. Identical values can stand only once. This is one part of the list. The main result of the screen is listed elsewhere. These columns were measured beside it and carry no call.

The chains behind the UniProt entries cited, without tags or fusion partners.
UniProt P03372, whole entry, looked up: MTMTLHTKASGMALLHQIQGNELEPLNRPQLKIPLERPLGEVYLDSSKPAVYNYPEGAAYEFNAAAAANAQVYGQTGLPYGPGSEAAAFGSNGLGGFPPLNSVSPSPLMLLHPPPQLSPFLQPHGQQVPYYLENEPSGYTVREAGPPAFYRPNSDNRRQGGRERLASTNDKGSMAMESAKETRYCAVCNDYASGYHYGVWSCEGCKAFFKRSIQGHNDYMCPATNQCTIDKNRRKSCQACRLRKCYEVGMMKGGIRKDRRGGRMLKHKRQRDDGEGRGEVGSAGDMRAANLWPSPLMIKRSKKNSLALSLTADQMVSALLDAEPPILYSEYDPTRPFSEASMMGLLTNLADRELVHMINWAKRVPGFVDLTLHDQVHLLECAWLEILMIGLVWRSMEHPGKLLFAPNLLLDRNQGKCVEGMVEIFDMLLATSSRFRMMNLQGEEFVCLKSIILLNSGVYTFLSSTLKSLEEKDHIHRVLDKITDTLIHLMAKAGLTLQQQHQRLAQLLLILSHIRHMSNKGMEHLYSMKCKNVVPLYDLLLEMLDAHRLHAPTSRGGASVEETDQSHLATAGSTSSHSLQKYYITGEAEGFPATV

These compounds were tested against Estrogen receptor (Homo sapiens) (UniProt P03372) (assay: blockers of coactivator recruitment to ERα – biochemical, LOPAC library, TR-FRET, primary screen (AID 694;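 also: receptor was agonist-bound with estradiol present during the assay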)). Settings: TR-FRET ERalpha-coactivator peptide binding, at 15 µM, stronger effect = higher value.

Compound	inhibition
NNC(=O)c1ccc(O)cc1	-0.27%
NCCCP(=O)(O)O	-1.98%
CCNC(=O)[C@H]1O[C@@H](n2cnc3c(N)ncnc32)C(O)[C@H]1O (some centres not stated)	11.7%
CNCCc1c[nH]c2ccc(O)cc12	0.81%
NNC(N)=O	0.51%
COC(=O)C1=CCCN(C)C1	-0.07%
N[C@H](CCCCCP(=O)(O)O)C(=O)O	-3.22%
CCn1cc(C(=O)O)c(=O)c2ccc(C)nc21	0.37%
CC(C)(C)c1o[nH]c(=O)c1CC(N)C(=O)O (configuration not stated)	-9.31%
O=C1CCCN1CC#CCN1CCCC1	1.79%
C[C@]12N[C@H](Cc3ccccc31)c1ccccc12	-1.03%
CCCN(CCC)C1CCc2cccc(O)c2C1 (configuration not stated)	3.38%
Cc1nccc2c1[nH]c1ccccc12	5.26%
CCCN1CCc2cccc3c2[C@H]1Cc1ccc(O)c(O)c1-3	6.96%
CN1CC[C@@]2(C)c3cc(O)ccc3N(C)C12 (some centres not stated)	7.88%
CCN(CC)c1ncnc2c1ncn2[C@@H]1O[C@H](COP(=O)(O)OP(=O)(O)C(Br)(Br)P(=O)(O)O)[C@@H](O)[C@H]1O	-1.75%
COc1ccc2c(c[n+](C)c3c4cc5c(cc4ccc23)OCO5)c1OC	-1.14%
CNc1ccc2oc(C[C@H]3O[C@@]4(CC[C@H]3C)O[C@H]([C@H](C)C(=O)c3ccc[nH]3)[C@H](C)C[C@H]4C)nc2c1C(=O)O	-1.36%
c1ccc2c(c1)[I+]c1ccccc1-2	-0.06%
CCCN1CCC[C@H](c2cccc(O)c2)C1	-1.27%
NC(=O)COc1c(F)cc(SCCNS(=O)(=O)c2ccccc2)cc1F	-2.18%
C[N+]1(C)CCN(c2ccccc2)CC1	-0.43%
C[C@H](Cc1ccc2c(c1)OC(C(=O)O)(C(=O)O)O2)NC[C@H](O)c1cccc(Cl)c1	1.61%
CCC1(c2ccc(N)cc2)CCC(=O)NC1=O (configuration not stated)	1.33%
N[C@@]1(C(=O)O)CC[C@@H](C(=O)O)C1	-7.67%

Compound	inhibition
CN(C(=O)Cc1ccc(Cl)c(Cl)c1)C(CN1CCCC1)c1cccc(OCC(=O)O)c1 (configuration not stated)	-1.36%
NCCc1ccc(O)cc1	-0.14%
C[C@@H](N)Cc1cnc[nH]1	-0.55%
Clc1cc(I)cc(Cl)c1NC1=NCCN1	2.41%
CCCN1CCC[C@@H]2Cc3[nH]ncc3C[C@H]21	3.3% and 4.2%
NCCc1c[nH]c2ccccc12	-0.2%
CN1C2CCC1CC(OC(c1ccccc1)c1ccccc1N)C2 (configuration not stated)	-3.14%
Cc1ccc(S(=O)(=O)N[C@@H](CCCCN)C(=O)CCl)cc1	5.6%
CCCN1CCC[C@@H](c2cccc(O)c2)C1	4.87%
Cc1cccc(C)c1NC1=NCCCS1	22.1%
Clc1ccc(N2CC3CCC(C2)N3)nn1	2.32%
CCCCCCCCCCCCCC(=O)O[C@@H]1[C@@H](C)[C@@]2(O)[C@@H](C=C(CO)C[C@@]3(O)C(=O)C(C)=C[C@@H]23)C2C(C)(C)[C@@]21OC(C)=O (some centres not stated)	2.86%
C[N+]1(C)CCC(OC(=O)C(c2ccccc2)c2ccccc2)CC1	1.05%
CC(=O)NBr	-0.97%
Cc1c2ccncc2c(C)c2c1[nH]c1ccccc12	5.53%
CC(C)NP(=O)(NC(C)C)OP(=O)(NC(C)C)NC(C)C	2.04%
C#CCN[C@H](C)Cc1ccccc1	-1.83%
CCCN(CCC)[C@@H]1CCc2cccc(O)c2C1	2.93%
COc1cc(CCN)ccc1O	-3.7%
NCc1cc(=O)[nH]o1	-0.13%
CCCN1CCc2cc(O)cc3c2[C@H]1Cc1ccc(O)c(O)c1-3	50%
CC1(C(=O)O)C2CCC(O2)C1(C)C(=O)O (configuration not stated)	-0.95%
CC(C)(C)NCC(O)c1ccccc1Cl (configuration not stated)	-0.23%
Nc1ncnc2c1ncn2[C@@H]1O[C@H](COP(=O)(O)CP(=O)(O)OP(=O)(O)O)[C@H](O)C1O (some centres not stated)	-2.94%
CS(=N)(=O)CC[C@H](N)C(=O)O (some centres not stated)	2.39%

Compound	inhibition
Ic1ccccc1CNC1C2CCN(CC2)C1C(c1ccccc1)c1ccccc1 (configuration not stated)	-4.88%
COc1ccc2c(c1)/C(=C/c1cnc[nH]1)C(=O)N2	-5.07%
NCCc1c[nH]c2ccc(O)cc12	-1.65%
CC(Cc1ccc(OCC(=O)O)cc1)NCC(O)c1cccc(Cl)c1 (configuration not stated)	0.47%
OC1CCCCC1N1CCC(c2ccccc2)CC1 (configuration not stated)	-1.91%
O=[N+]([O-])c1cc(O)c(O)c([N+](=O)[O-])c1	5%
NCCc1ccc(S(=O)(=O)F)cc1	-0.59%
C[C@H](N)CN1CCc2ccc(Br)cc21	-1.78%
N[C@@H](Cn1ccc(=O)[nH]c1=O)C(=O)O	2.46%
C=C(C)[C@H]1CN[C@H](C(=O)O)[C@H]1CC(=O)O	2.9%
NC1CC1c1ccccc1 (configuration not stated)	0.05%
CC12CCC3C(CCC4=C(O)C(=O)CCC43C)C1CCC2=O (configuration not stated)	-4.7%
O=[N+]([O-])c1ccc2nc(N3CCNCC3)ccc2c1	2.21%
CCCN(CCC)CCc1c[nH]c2ccc(C(N)=O)cc12	3.38%
C=CCN1C[C@@H](C)N([C@H](c2ccc(C(=O)N(CC)CC)cc2)c2cccc(OC)c2)C[C@@H]1C	-1.11%
COc1cc(C[C@@H](C)N)c(OC)cc1I	2.84%
C=CCN1CC[C@]23c4c5ccc(O)c4O[C@H]2/C(=N/NC(=O)c2ccccc2)CC[C@@]3(O)[C@H]1C5	31.7%
CC1=C[C@@H]2c3cccc4[nH]cc(c34)C[C@H]2N(C)C1	-1.61%
COc1ccc2c(c1)C13CCCCC1C(C2)N(C)CC3 (configuration not stated)	1.39%
C[N+](C)(C)CC(=O)O	12.1%
S=C(NC1CCCCC1)N1CCC(c2cnc[nH]2)CC1	0.57%
NC(N)=NOCC[C@H](N)C(=O)O	-2.47%
CNCCc1ccc(O)c(O)c1	-1.81%
Oc1cc2c(cc1O)[C@H]1c3ccccc3CN[C@@H]1CC2	5.65%
CN1CCC23CCCC[C@H]2C1Cc1ccc(O)cc13 (some centres not stated)	-3.9%

Compound	inhibition
CCCN1CCC[C@@H]2Cc3nc(N)ncc3C[C@H]21	3.48%
N#CC(=Cc1ccc(O)c(O)c1)C(N)=S	12.6%
Cn1cnc(CCN)c1	-0.47%
NC(Cn1oc(=O)[nH]c1=O)C(=O)O (configuration not stated)	2.99%
CC1Cc2cc3c(cc2C(c2ccc(N)cc2)=NN1)OCO3 (configuration not stated)	1.51%
CN1CCC(c2c[nH]c3ccc(O)cc23)CC1	-1.65%
CC(C)[C@@]1(NC(=O)[C@@H]2C[C@@H]3c4cccc5[nH]cc(c45)C[C@H]3N(C)C2)O[C@@]2(O)[C@@H]3CCCN3C(=O)[C@H](Cc3ccccc3)N2C1=O	0.11%
Oc1ccc2c3c1O[C@H]1c4[nH]c5ccccc5c4C[C@@]4(O)C(C2)N(CC2CC2)CCC314 (some centres not stated)	1.45%
CC(N)Cc1c[nH]c2ccc(OCc3cccs3)cc12 (configuration not stated)	-1.78%
COc1ccc(CNC(=O)/C=C/c2ccc3[nH]cc(CCN(C)C)c3c2)cc1	1.81%
NC(=O)c1ccc(OCC(O)CN2CC=C(c3ccc(F)cc3)CC2)cc1 (configuration not stated)	2.41%
C[N+](C)(C)CC#CCN1CCCC1=O	-6.75%
NC(=O)CN1CC(O)CC1=O (configuration not stated)	-4.04%
COc1cc(C=C(C#N)C#N)cc(O)c1O	0.97%
Nc1ccncc1	-3.1%
COc1ccc(-n2nc(C(F)(F)F)cc2-c2ccc(Cl)cc2)cc1	6.58%
C[N+]1(C)CCOC(O)(c2ccc(-c3ccc(C4(O)C[N+](C)(C)CCO4)cc3)cc2)C1 (configuration not stated)	4.41%
NCC(O)c1cc(O)c(O)cc1F (configuration not stated)	27.1%
O=C(O)CCCc1ccc(N(CCCl)CCCl)cc1	6.41%
CCS(=O)(=O)Nc1cccc(C(=C2CCCCC2)c2cnc[nH]2)c1	-2.88%
Cc1[nH]c2ccc(O)cc2c1CCN	-1.03%
C=CCN1CCc2cccc3c2[C@H]1Cc1ccc(O)c(O)c1-3	10.1%
Oc1ccc2c3c1O[C@H]1c4[nH]c5c(c4C[C@@]4(O)[C@@H](C2)N(CC2CC2)CC[C@]314)C[C@@]1(O)[C@H]2Cc3ccc(O)c4c3[C@@]1(CCN2CC1CC1)[C@H]5O4	4.31%
CCCCc1ccc(C(=O)O)nc1	-1.68%
C[N+](C)(C)CC#CCOC(=O)Nc1cccc(Cl)c1	-1.75%

Compound	inhibition
CC(N)[C@H](O)c1ccc(O)c(O)c1 (some centres not stated)	-1.34%
Cc1ncc(CNC(=O)N(CCCl)N=O)c(N)n1	1.87%
COc1ccc2[nH]cc(CCN)c2c1	2.32%
CC[C@@]1(O)C(=O)OCc2c1cc1n(c2=O)Cc2cc3ccccc3nc2-1	7.41%
C[C@]12Cc3cn4c(nc3C=C1CCC1C2CC[C@@]2(C)[C@H]1CC[C@@]2(O)C#N)nc1ccccc14 (some centres not stated)	-5.08%
Clc1cccc(N2CCNCC2)c1	-6.81%
O=C1NCN(c2ccccc2)C12CCN(CC1COc3ccccc3O1)CC2 (configuration not stated)	0.38%
c1ccc2nc(N3CCNCC3)ccc2c1	-0.06%
NC(=NCCC[C@H](N)C(=O)O)N[N+](=O)[O-]	1.03%
C[C@]12CC[C@H](OS(=O)(=O)O)CC1=CC[C@@H]1[C@@H]2CC[C@]2(C)C(=O)CC[C@@H]12	0.46%
Cc1c(C(=O)c2cccc3ccccc23)c2cccc3c2n1[C@H](CN1CCOCC1)CO3	2.28%
CC(CCc1ccccc1)NC(C)C(O)c1ccc(O)cc1 (configuration not stated)	-0.12%
C#CCN(C)[C@@H](C)Cc1ccccc1	-2.35%
CC(=O)[C@H]1CCC2C3CC[C@H]4C[C@H](O)CC[C@]4(C)C3CC[C@@]21C (some centres not stated)	2.7%
CC(C)c1cccc(C(C)C)c1O	-0.56%
Cc1nc(-c2ccc(-c3ccc(C(=O)N4CCc5cc6c(cc54)C4(CCN(C)CC4)CO6)cc3)c(C)c2)no1	6.5%
OCc1cnc[nH]1	-3.48%
N#CC(C#N)=Cc1cc(O)c(O)c(O)c1	10.5%
CN1C[C@H](CNC(=O)OCc2ccccc2)C[C@@H]2c3cccc4c3c(cn4C)C[C@H]21	-0.71%
CCN1C[C@]2(C)CC[C@H](O)[C@@]34C5C[C@@H]6[C@@H](OC)C[C@@](O)(C5[C@H]6O)[C@@H](CC23)C14 (some centres not stated)	-3.6%
C[C@]12CC[C@H](O)CC1=CC[C@@H]1[C@@H]2CC[C@]2(C)C(=O)CC[C@@H]12	0.16%
CC[C@@H](CO)NC(=O)[C@@H]1C=C2c3cccc4c3c(cn4C)C[C@H]2N(C)C1	1.21%
